According to US20250188457A1, “COMPOSITIONS AND METHODS FOR THE TREATMENT OF GLIOBLASTOMA BY INHIBITION OF THE TFPI2-CD51-STAT6 SIGNALING AXIS” (Northwestern University, priority 2023, published 2025):
Results are given in words; binding and its absence hold for the method and conditions named. In cells and extracts the contact can be indirect. Some binding calls cover weakened binding; strength is not graded here.

Amino acid sequences for entries named in this document (tags omitted). Residues count along the entry.
UniProt P06756, residues 31-1048: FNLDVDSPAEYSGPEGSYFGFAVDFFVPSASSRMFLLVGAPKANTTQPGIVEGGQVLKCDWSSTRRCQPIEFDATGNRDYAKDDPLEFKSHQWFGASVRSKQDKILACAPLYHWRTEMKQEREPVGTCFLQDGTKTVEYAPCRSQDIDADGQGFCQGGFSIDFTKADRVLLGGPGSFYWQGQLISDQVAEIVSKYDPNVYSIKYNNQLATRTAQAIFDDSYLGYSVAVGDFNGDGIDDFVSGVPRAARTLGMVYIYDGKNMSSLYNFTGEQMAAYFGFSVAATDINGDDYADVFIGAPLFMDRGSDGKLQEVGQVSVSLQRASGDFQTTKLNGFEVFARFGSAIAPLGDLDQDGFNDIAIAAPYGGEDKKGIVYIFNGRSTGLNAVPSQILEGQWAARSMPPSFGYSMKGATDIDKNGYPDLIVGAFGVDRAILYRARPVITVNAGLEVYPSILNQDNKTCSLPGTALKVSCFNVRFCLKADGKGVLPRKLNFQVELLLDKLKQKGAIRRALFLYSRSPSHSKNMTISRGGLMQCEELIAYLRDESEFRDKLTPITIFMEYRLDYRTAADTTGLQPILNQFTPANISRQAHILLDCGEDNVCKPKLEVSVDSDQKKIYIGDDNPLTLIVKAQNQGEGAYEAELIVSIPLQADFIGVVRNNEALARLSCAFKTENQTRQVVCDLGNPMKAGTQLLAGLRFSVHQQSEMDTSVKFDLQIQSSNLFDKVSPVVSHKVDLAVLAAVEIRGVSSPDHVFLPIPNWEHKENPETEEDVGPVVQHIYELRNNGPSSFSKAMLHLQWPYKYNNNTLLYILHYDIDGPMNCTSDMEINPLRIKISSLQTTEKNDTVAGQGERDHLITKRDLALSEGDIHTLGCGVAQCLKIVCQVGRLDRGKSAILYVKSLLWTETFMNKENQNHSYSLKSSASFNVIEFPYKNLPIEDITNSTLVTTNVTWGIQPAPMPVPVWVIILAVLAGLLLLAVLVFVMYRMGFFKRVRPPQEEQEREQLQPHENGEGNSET

Key:
[1] = molecular target: CD51 (integrin alpha V, ITGAV) on human microglia (HMC3 cell line, primary human microglia PrhMG) (human) (UniProt P06756); assay: co-immunoprecipitation and immunoblot from HMC3 microglia treated with 20 ng/ml TFPI2 recombinant protein for 1 hr
[2] = molecular target: T1, CD51 (integrin alpha V, Itgav) on mouse SIM-A9 microglia (mouse) (UniProt P43406); assay: co-immunoprecipitation and immunoblot from SIM-A9 microglia treated with 20 ng/ml TFPI2 recombinant protein for 1 hr
T1 sequence (looked up): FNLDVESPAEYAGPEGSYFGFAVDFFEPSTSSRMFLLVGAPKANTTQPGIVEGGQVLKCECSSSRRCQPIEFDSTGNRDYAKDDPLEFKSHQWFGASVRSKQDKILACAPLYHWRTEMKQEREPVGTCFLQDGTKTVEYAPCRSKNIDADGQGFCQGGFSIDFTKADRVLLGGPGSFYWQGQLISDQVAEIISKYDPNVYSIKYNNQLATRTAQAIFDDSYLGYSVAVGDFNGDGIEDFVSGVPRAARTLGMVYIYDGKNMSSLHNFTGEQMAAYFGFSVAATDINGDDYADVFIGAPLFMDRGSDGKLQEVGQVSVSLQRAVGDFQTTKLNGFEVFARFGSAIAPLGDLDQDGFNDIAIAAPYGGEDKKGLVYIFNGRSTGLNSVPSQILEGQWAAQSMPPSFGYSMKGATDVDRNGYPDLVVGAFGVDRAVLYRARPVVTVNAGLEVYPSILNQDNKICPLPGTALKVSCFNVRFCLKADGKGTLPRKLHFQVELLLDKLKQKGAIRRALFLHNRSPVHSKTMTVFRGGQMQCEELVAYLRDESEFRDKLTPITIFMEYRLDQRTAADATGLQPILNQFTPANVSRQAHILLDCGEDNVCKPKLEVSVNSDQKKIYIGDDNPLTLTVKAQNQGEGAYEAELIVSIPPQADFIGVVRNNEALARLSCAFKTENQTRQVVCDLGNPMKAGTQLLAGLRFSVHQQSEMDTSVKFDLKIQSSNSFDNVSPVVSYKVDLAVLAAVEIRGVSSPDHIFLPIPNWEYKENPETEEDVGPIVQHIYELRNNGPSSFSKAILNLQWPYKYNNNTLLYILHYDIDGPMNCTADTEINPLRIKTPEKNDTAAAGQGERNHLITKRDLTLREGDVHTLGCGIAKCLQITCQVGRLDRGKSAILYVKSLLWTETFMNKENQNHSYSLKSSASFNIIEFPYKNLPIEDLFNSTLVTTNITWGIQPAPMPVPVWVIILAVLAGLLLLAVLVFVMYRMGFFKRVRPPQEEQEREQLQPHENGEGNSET

binding [1]: binds | binding [2]: binds
B1: TFPI2 recombinant protein (tissue factor pathway inhibitor 2; BioVision, #7481-10) (ligand, UniProt P48307 23-235, looked up)
chain: DAAQEPTGNNAEICLLPLDYGPCRALLLRYYYDRYTQSCRQFLYGGCEGNANNFYTWEACDDACWRIEKVPKVCRLQVSVDDQCEGSTEKYFFNLSSMTCEKFFSGGCHRNRIENRFPDEATCMGFCAPKKIPSFCYSPKDEGLCSANVTRYYFNPRYRTCDAFTYTGCGGNDNNFVSREDCKRACAKALKKKKKMPKLRFASRIRKIRKKQF
notes: Bought recombinant protein added to microglia at 20 ng/ml; also called recombinant TFPI2; secreted TFPI2
